# About 5,500 (1.4%) of roughly 400,000 compounds were called active. Inconclusive means that the source gave no clear call. Such entries were picked first, then a sample of the others. Calls come from the whole dose curve; as a rule, active = well fitted cell-killing curve with a large enough effect; inconclusive = small, poorly fitted or top-dose-only effect, or effect the other way; inactive = flat fitted curve, though single readings scatter. Potencies of inconclusive entries are doubtful fits and often do not repeat.
# Assay: qHTS assay for MDR1-selective chemotherapeutics: Primary screen using the parental adenocarcinoma cell KB-3-1; note: nearly all actives have a fitted effect of over 60% in size
# Conditions: KB-3-1 viability, CellTiter-Glo ATP luminescence, 72 h; activity change, negative = cytotoxic: at 46.1 µM (top of the series)
# Summary of the method: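 Cytotoxicity in the drug-sensitive parental line KB-3-1 was scored as loss of CellTiter-Glo luminescence following 72 h incubation with compound. Values come from curve fitting of normalized concentration-response data.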
# % is set by controls: 0 for no effect and ±100 for the full control effect; potency is the fitted concentration of half-maximal effect.
Structure (SMILES),Potency,"activity change, negative = cytotoxic"
O=C(Nc1ccc2c(c1)CN(C(=O)Nc1ccc(F)cc1)CC2)c1ccccn1,"inconclusive: 20.6 µM [cytotoxic, single point]",
CCN=C1S/C(=C\c2ccc(Sc3ccc(Cl)cc3)o2)C(=O)N1CC,"inconclusive: 29.1 µM [cytotoxic, single point]",
CCOc1ccc2c(c1)[N+](C)(C)C(C)(C)C=C2C,active: 8.2 µM,
COc1ccc(OC)c(CN2C(=O)CSCC2(C)C(=O)Nc2c(C)cccc2C)c1 (stereo not drawn),inactive,
COc1ccc(CCNC(=O)/C(C#N)=C2\N=C(NC(=O)c3cccs3)c3ccccc32)cc1,"inconclusive: 13 µM [cytotoxic, partial curve, poor fit]",
CCC(C(=O)Nc1ccccc1OC)n1c(C(=O)OC)cc2sc(Cl)cc21 (stereo not drawn),inactive,
Cc1ccc(-c2csc3ncnc(Nc4ccc(N5CCOCC5)cc4)c23)cc1,"inconclusive: 16.4 µM [cytotoxic, single point]",
COc1cccc(S(=O)(=O)NCc2ccc(C(=O)N3CCN(Cc4ccccc4)CC3)cc2)c1,"inconclusive: 14.6 µM [cytotoxic, partial curve, poor fit]",
CCOC(=O)c1c(C)[nH]c(C)c1C(=O)CSc1nnc(-c2ccco2)n1Cc1ccccc1,"inconclusive: 13 µM [cytotoxic, partial curve, poor fit]",
CCc1nc(SCC(=O)Nc2cc(C)ccc2OC)c2c(C)c(C)sc2n1,"inconclusive: 32.6 µM [cytotoxic, single point]",
CCc1ccc(Nc2n[n+](-c3ccccc3)c(-c3ccc(OC)c(Br)c3)s2)cc1,"inconclusive: 20.6 µM [cytotoxic, single point]",
COc1ccc([C@H]2CC(=O)C=C(c3ccc(OC)cc3OC)C2)cc1,active: 0.82 µM,
COc1ccc(CNCCC(c2ccc(OC(C)C)cc2)C(C)C)cc1OC (stereo not drawn),"inconclusive: 29.1 µM [cytotoxic, single point]",
c1ccc(N2CCN(c3nc4cc5c(cc4s3)OCCO5)CC2)cc1,"inconclusive: 5.8 µM [cytotoxic, partial curve]",
Cc1c(C)n2c(SCC(=O)Nc3cccc4ccccc34)nnc2[nH]c1=O,inactive,
CCOC(=O)CC1(NC(=O)C2CCC(=O)N(Cc3ccccc3OC)C2)CCCCC1 (stereo not drawn),inactive,
Cc1ccc2nc(N(CCCN(C)C)C(=O)CS(=O)(=O)c3ccccc3)sc2c1,inactive,
COc1cc(OC)cc(-c2c(-c3cccs3)c3cc(-c4ccn[nH]4)ccc3n2C)c1,"inconclusive: 14.6 µM [cytotoxic, partial curve]",
COc1cc(/C=N\NC(=O)c2ccc(-c3ccccc3)cc2)cc(OC)c1OC(C)=O,inactive,
CCn1c(O)c(/C=N/N=C/c2ccccc2)c2ccc(C3=NNC(=O)CC3)cc21,"inconclusive: 0.366 µM [rising, full curve, poor fit]",
Cc1ccc2nc(C)c3c(c2c1)N(c1ccccc1)CC3,"inconclusive: 20.6 µM [cytotoxic, single point]",
CC(=O)Nc1ccc(C(=O)Nc2ccc3c(c2)N(C2CCCC2)C(=O)c2ccccc2S3)cc1,"inconclusive: 5.17 µM [cytotoxic, full curve]",
CCSc1nccc(-c2nn(-c3ccc(C)cc3)ccc2=O)n1,active: 2.06 µM,

# Looked up above:
# `O=C(Nc1ccc2c(c1)CN(C(=O)Nc1ccc(F)cc1)CC2)c1ccccn1` | Potency: inconclusive: 20.6 µM [cytotoxic, single point]
# `CCC(C(=O)Nc1ccccc1OC)n1c(C(=O)OC)cc2sc(Cl)cc21` (stereo not drawn) | Potency: inactive
# `Cc1ccc2nc(N(CCCN(C)C)C(=O)CS(=O)(=O)c3ccccc3)sc2c1` | Potency: inactive
# `COc1ccc([C@H]2CC(=O)C=C(c3ccc(OC)cc3OC)C2)cc1` | Potency: active: 0.82 µM
# `CCn1c(O)c(/C=N/N=C/c2ccccc2)c2ccc(C3=NNC(=O)CC3)cc21` | Potency: inconclusive: 0.366 µM [rising, full curve, poor fit]

# The results go on.

Structure (SMILES),Potency,"activity change, negative = cytotoxic"
CC1CCc2nc(NC(=O)CN3CCN(Cc4ccc5c(c4)OCO5)CC3)sc2C1 (stereo not drawn),"inconclusive: 18.4 µM [cytotoxic, single point]",
CCOC(=O)[C@@H]1[C@H]2COc3cc(OC)ccc3[C@H]2N2C(=O)N(c3cccc(C)c3)C(=O)[C@]12C,inactive,
CCN1C(=O)[C@H]2[C@@H](c3ccc(-c4ccc(C(C)=O)cc4)cc3)N[C@@](Cc3ccccc3)(C(=O)OC)[C@H]2C1=O,"inconclusive: 18.4 µM [cytotoxic, single point]",
CCOc1ccc(CN(Cc2ccco2)S(=O)(=O)c2ccc(-n3cnnn3)c(OC)c2)cc1,"inconclusive: 23.1 µM [cytotoxic, partial curve, poor fit]",
Cc1cccc(NC(=O)CCC(=O)Nc2nnc(C3CCCCC3)s2)c1,"inconclusive: 36.6 µM [cytotoxic, partial curve, poor fit]",
Clc1ccccc1CN1CCc2nc(N3CCN(c4ncccn4)CC3)ncc2C1,"inconclusive: 29.1 µM [cytotoxic, single point]",
COc1cc(CNc2ccc(N3CCCC3)cc2)cc(Cl)c1OC,active: 11.6 µM,
O=C(NNC(=S)Nc1ccc(F)cc1)C1CC1c1ccc(Cl)cc1 (stereo not drawn),inactive,
O=C(Nc1nnc(-c2ccccc2)o1)C1CCCCC1,"inconclusive: 20.6 µM [cytotoxic, single point]",
COc1cccc(-c2nnc3n2N=C(C(C)(C)C)CS3)c1,"inconclusive: 29.1 µM [cytotoxic, single point]",
COc1ccc(-n2ncc(C(=O)NCCN3CCOCC3)c2C2CCN(C(=O)OC(C)(C)C)CC2)cc1,inactive,
CC(=O)c1c(OC(=O)c2ccccc2)ccnc1C(F)(F)F,inactive,
Oc1ccc(CNc2ccccc2)c2cccnc12,"inconclusive: 29.1 µM [cytotoxic, single point]",
Fc1ccc(C(CCCn2nnc(-c3cccnc3)n2)c2ccc(F)cc2)cc1,"inconclusive: 29.1 µM [cytotoxic, single point]",
COC(=O)c1cnc(Oc2ccc(NC(=O)NC(=O)c3c(F)cccc3F)cc2)cc1C(F)(F)F,inactive,
O=c1oc2ccc3ccccc3c2cc1-c1nnc(Nc2cccc(C(F)(F)F)c2)s1,inactive,
COc1ccccc1/C=C/C=N/NC(=O)Cc1cccn1C,"inconclusive: 18.4 µM [rising, partial curve]",
COc1cc(C(=O)c2ccc3c(c2)OCO3)cc(OC)c1OC,active: 4.61 µM,
NNc1nc(-c2ccccc2)nc2sc3c(c12)CCCC3,inactive,
O=C(NCCc1ccccc1)c1cnc2sc(N3CCCCC3)nn2c1=O,"inconclusive: 0.0146 µM [rising, full curve]",
Cc1ccn2c(NC3CCCCC3)c(-c3cccc(SC4CCCCC4)c3)nc2c1,"inconclusive: 29.1 µM [cytotoxic, single point]",
COc1ccc(C2Nc3ccccc3C(=O)N2Cc2ccccc2)cc1CN1CCOCC1 (stereo not drawn),"inconclusive: 29.1 µM [rising, single point]",
NNc1nc2ccc(Cl)cc2s1,"inconclusive: 20.6 µM [cytotoxic, single point]",

Structure (SMILES),Potency,"activity change, negative = cytotoxic"
COC(=O)Cn1c(=O)c2c(n(Cc3ccccc3)c1=O)N/C(=C/c1ccc(Br)cc1)C2=O,,inconclusive: 1.97%
O=C(/C=C\c1ccco1)Nc1cc([N+](=O)[O-])ccc1F,active: 4.11 µM,
CCOc1ccc2nc(N3CCCC(C(=O)NCCCN4CC(C)CC(C)C4)C3)sc2c1 (stereo not drawn),"inconclusive: 8.2 µM [cytotoxic, partial curve, poor fit]",
Cc1cc(CCNC=O)c(C)c2c1oc1ccccc12,"inconclusive: 10.3 µM [cytotoxic, partial curve]",
O=C(N/N=C/c1ccccn1)c1cc(-c2ccncc2)nc2ccccc12,inactive,
CCCCCCc1cc2cc(-c3nnc(-c4ccccc4O)o3)c(=O)oc2cc1O,"inconclusive: 18.4 µM [cytotoxic, single point]",
CC(C)OCCCn1c(-c2ccco2)nc2nc3ccccc3nc21,inactive,
COc1ccc(C2/C=C\CN(C(=O)c3ccccc3)[C@H](Cc3ccccc3)C(=O)N2Cc2ccc(F)cc2)cc1 (stereo partly drawn),"inconclusive: 29.1 µM [cytotoxic, single point]",
O=C(NNC1CCN(Cc2ccccc2)CC1)c1ccccc1,"inconclusive: 5.17 µM [rising, partial curve, poor fit]",
CC(C)C(=O)NC(=S)Nc1ccccc1C(=O)NC1CCCCC1,"inconclusive: 32.6 µM [rising, single point]",
CCn1c(SCc2nc3ccccc3c(=O)[nH]2)nc2ccccc21,"inconclusive: 29.1 µM [cytotoxic, single point]",
CCCCn1nnnc1C(c1ccccc1)N1CCN(c2ccc(C)cc2)CC1 (stereo not drawn),inactive,
O=C(NC(c1ccc(-c2ccccc2)cc1)c1cnccn1)C1CCN(Cc2ccc3c(c2)OCO3)CC1 (stereo not drawn),"inconclusive: 29.1 µM [cytotoxic, single point]",
CN(C)c1ccc(CC(=O)N2CCCC(c3cc(C(=O)Nc4ccc(F)c(Cl)c4)no3)C2)cc1 (stereo not drawn),"inconclusive: 29.1 µM [cytotoxic, single point]",
CN1c2ccccc2C(C)(C)C12C=Nc1c(cc(N3CCOCC3)c3ccccc13)O2 (stereo not drawn),"inconclusive: 20.6 µM [cytotoxic, partial curve, poor fit]",
CCC(=O)OCC(=O)c1cc(C)n(-c2ccc(Br)cc2)c1C,"inconclusive: 20.6 µM [cytotoxic, single point]",
N=c1c2c(-c3ccccc3)c(-c3ccccc3)oc2ncn1CCCN1CCOCC1,"inconclusive: 18.4 µM [cytotoxic, single point]",
COc1ccc(-c2csc(NC(=O)Cc3ccccc3F)n2)cc1OC,"inconclusive: 14.6 µM [cytotoxic, partial curve, poor fit]",
O=C(Cn1c(SCC(=O)Nc2ccc(F)cc2)nc2ccccc21)NCc1ccccc1Cl,inactive,
NCCCC[C@H]1CN=C(N)N1CCCCC1CCCCC1,inactive,
O=C(Nc1ccc(C(=O)N2CCCC2)cc1)c1ccc2c(c1)OCO2,"inconclusive: 18.4 µM [cytotoxic, partial curve]",
Cc1cccc(NC(=O)CN(C)CC(=O)NC(c2ccccc2)c2ccccc2)c1C,inactive,

# — PubChem BioAssay AID1347075 (National Center for Advancing Translational Sciences (NCATS), 2019)
